Results are given in words; binding and its absence hold for the method and conditions named. In cells and extracts the contact can be indirect. Some entries that bind do so weakly or less than the wild type.

Amino acid sequences for entries named in this document (tags omitted).
UniProt P54578: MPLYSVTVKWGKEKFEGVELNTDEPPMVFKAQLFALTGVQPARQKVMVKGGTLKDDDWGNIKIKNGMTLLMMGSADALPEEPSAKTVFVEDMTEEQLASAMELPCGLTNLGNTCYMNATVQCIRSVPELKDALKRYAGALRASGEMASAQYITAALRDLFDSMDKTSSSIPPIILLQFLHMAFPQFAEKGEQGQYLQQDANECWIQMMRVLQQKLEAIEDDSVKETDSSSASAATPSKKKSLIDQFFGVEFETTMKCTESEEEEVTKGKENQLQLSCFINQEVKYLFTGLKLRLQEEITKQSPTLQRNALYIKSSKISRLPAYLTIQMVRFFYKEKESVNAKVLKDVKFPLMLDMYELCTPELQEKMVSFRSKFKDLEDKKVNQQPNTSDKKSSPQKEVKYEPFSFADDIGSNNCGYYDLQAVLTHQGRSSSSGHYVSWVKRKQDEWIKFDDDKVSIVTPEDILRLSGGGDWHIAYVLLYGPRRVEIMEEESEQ

Experimental findings from article PMC7046304 are described below.

The target of this assay is ubiquitin‐specific peptidase 14 (USP14) (human (endogenous in human podocytes)) (UniProt P54578). Kind of assay: co-IP; lysates of HG-treated human podocytes (sh-NC or sh-SPAG5-AS1) in IP lysis buffer, incubated with anti-USP14 or control IgG overnight at 4°C, beads, washed 3 times, Western blotting.

B1: sperm‐associated antigen 5 (SPAG5) (protein, UniProt Q96R06 1-1193)
chain: MWRVKKLSLSLSPSPQTGKPSMRTPLRELTLQPGALTNSGKRSPACSSLTPSLCKLGLQEGSNNSSPVDFVNNKRTDLSSEHFSHSSKWLETCQHESDEQPLDPIPQISSTPKTSEEAVDPLGNYMVKTIVLVPSPLGQQQDMIFEARLDTMAETNSISLNGPLRTDDLVREEVAPCMGDRFSEVAAVSEKPIFQESPSHLLEESPPNPCSEQLHCSKESLSSRTEAVREDLVPSESNAFLPSSVLWLSPSTALAADFRVNHVDPEEEIVEHGAMEEREMRFPTHPKESETEDQALVSSVEDILSTCLTPNLVEMESQEAPGPAVEDVGRILGSDTESWMSPLAWLEKGVNTSVMLENLRQSLSLPSMLRDAAIGTTPFSTCSVGTWFTPSAPQEKSTNTSQTGLVGTKHSTSETEQLLCGRPPDLTALSRHDLEDNLLSSLVILEVLSRQLRDWKSQLAVPHPETQDSSTQTDTSHSGITNKLQHLKESHEMGQALQQARNVMQSWVLISKELISLLHLSLLHLEEDKTTVSQESRRAETLVCCCFDLLKKLRAKLQSLKAEREEARHREEMALRGKDAAEIVLEAFCAHASQRISQLEQDLASMREFRGLLKDAQTQLVGLHAKQEELVQQTVSLTSTLQQDWRSMQLDYTTWTALLSRSRQLTEKLTVKSQQALQERDVAIEEKQEVSRVLEQVSAQLEECKGQTEQLELENSRLATDLRAQLQILANMDSQLKELQSQHTHCAQDLAMKDELLCQLTQSNEEQAAQWQKEEMALKHMQAELQQQQAVLAKEVRDLKETLEFADQENQVAHLELGQVECQLKTTLEVLRERSLQCENLKDTVENLTAKLASTIADNQEQDLEKTRQYSQKLGLLTEQLQSLTLFLQTKLKEKTEQETLLLSTACPPTQEHPLPNDRTFLGSILTAVADEEPESTPVPLLGSDKSAFTRVASMVSLQPAETPGMEESLAEMSIMTTELQSLCSLLQESKEEAIRTLQRKICELQARLQAQEEQHQEVQKAKEADIEKLNQALCLRYKNEKELQEVIQQQNEKILEQIDKSGELISLREEVTHLTRSLRRAETETKVLQEALAGQLDSNCQPMATNWIQEKVWLSQEVDKLRVMFLEMKNEKEKLMIKFQSHRNILEENLRRSDKELEKLDDIVQHIYKTLLSIPEVVRGCKELQGLLEFLS
Turning to B1, the binding result is “binds”.
